In the assay the target is T1, DMTN core domain (226-336aa) (human) (UniProt Q08495).
T1 sequence: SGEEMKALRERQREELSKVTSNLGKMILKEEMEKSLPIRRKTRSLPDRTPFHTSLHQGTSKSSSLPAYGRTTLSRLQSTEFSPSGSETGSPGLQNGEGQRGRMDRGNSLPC
As to the kind of experiment: pull-down; GST pull-down; purified GST fusion proteins used as bait; DMTN core domain with an HA tag, ARHGEF2 DH domain with a flag tag.

These are yes or no findings as the source states them, for the method shown. Binding seen in cells or lysates may run through a third protein. Some entries that bind do so weakly or less than the wild type.

In PMC6277997 one finds binding data, which are given here for 1 molecule.

B1: ARHGEF2 DH domain (domain or fragment, UniProt Q92974 235-432)
chain: KQQDVIYELIQTELHHVRTLKIMTRLFRTGMLEELHLEPGVVQGLFPCVDELSDIHTRFLSQLLERRRQALCPGSTRNFVIHRLGDLLISQFSGPSAEQMCKTYSEFCSRHSKALKLYKELYARDKRFQQFIRKVTRPAVLKRHGVQECILLVTQRITKYPLLISRILQHSHGIEEERQDLTTALGLVKELLSNVDEG
Take B1: the binding result was “binds”.
